Data from patent US11096942B2, “Heterocyclic compounds and uses thereof” (Celgene CAR LLC, priority 2010, dated 2021).
At least one compound was matched to its structure with a doubt left.

Molecular target: EGFR L858R/T790M (H1975 cells) (Homo sapiens (Human), UniProt P00533, L858R/T790M)
Experiment: Phospho-EGFR signaling immunoblot (1 hr), H1975 cells
Format: cell-based
Settings: WT EGFR (A431) vs H1975
Protocol: A431 human epidermoid carcinoma, H1975 human NSCLC and HCC827 human NSCLC adenocarcinoma cells were obtained from the American Type Culture Center (Manassas, Va.). A431 cells were grown in DMEM (Invitrogen, Carlsbad, Calif.) supplemented with 10% FBS (HyClone, South Logan, Utah) and 1% Penicillin-Streptomycin (P/S, Lonza, Walkersville, Md.).
All primary antibodies were obtained from Cell Signaling (Danvers, Mass.) and used at 1:1000. Secondary antibodies were used at 1:10,000. Goat anti-mouse IgG IRDye 800CW antibody was obtained from LiCor Biosciences (Lincoln, Nebr.) and goat anti-rabbit IgG Alexa Fluor 680 was obtained from Invitrogen.
Cells were grown in 12-well plates (Corning, Coring, N.Y.) to 90% confluence and then incubated in low-serum (0.1% FBS) media for 16-18 hr. […] A431 cells were then stimulated with 50 ng/ml EGF (Peprotech, Rocky Hill, N.J.) for 15 min. After treatment, cell monolayers were washed with cold PBS (Invitrogen) and immediately lysed by scrapping into 60 uL cold Cell Extraction Buffer (Invitrogen) supplemented with Complete Protease inhibitors (Roche, Indianapolis, Ind.) and PhosphoSTOP (Roche) phosphatase inhibitors.
Phospho-protein signals were quantitated using Odyssey Infrared Imaging (Li-Cor Biosciences).
To assess phosphor-EGFR signaling, blots were probed with rabbit anti-Phospho-EGFR (Y1068) and mouse total anti-EGFR antibodies. […]

C=CC(=O)Nc1cccc(Nc2nc(Nc3ccc(N4CCN(C(=O)CC)CC4)cc3OC)ncc2C(F)(F)F)c1 [Compound I-35, N-(3-(2-(2-methoxy-4-(4-propionylpiperazin-1-yl)phenylamino)-5-(trifluoromethyl)pyrimidin-4-ylamino)phenyl)acrylamide]
Ratio WT/mutant: >50
